Test results reported in patent US20240218063A1 (HARPOON THERAPEUTICS, published 2024).
Results are given in words; binding and its absence hold for the method and conditions named. Some entries that bind do so weakly or less than the wild type. One block for each binder: values may come before it.

Molecular target: cynomolgus DLL3 (cynomolgus)
Experiment: BLI (Octet)

- binding: binds
B1: anti-DLL3 trispecific protein 1H012 (other, not shown: small tags and cut ends)
chain: EVQLVESGGGLVQPGGSLTLSCVASGSTSSINAMGWYRRAPGKQRELVAGISSDGSKVYVDSVKGRFTISRDNAKNSVYLQMNSLRAEDTAVYYCYYFRTVSGSSMPYWGQGTLVTVSS

- binding: binds
B2: anti-DLL3 trispecific protein 4H011 (other, not shown: small tags and cut ends)
chain: EVQLVESGGGLVQPGGSLTLSCAASGSSVSRLSMAWYRQAPGKKRELVAGISVDGSTDYIDSVKGRFTISRDNAKNSVYLQMNSLRAEDTAVYYCYAYRWTTRLTYWGQGTLVTVSS
